Reference: patent US20250064846A1, “TREATMENT AND PREVENTION OF TRIGEMINAL NEURALGIA” (THE JOHNS HOPKINS UNIVERSITY, priority 2022, published 2025)
At least one structure is not confirmed: it was looked up by name or label, or the drawing left a doubt.

Assays:
[1] = system: constrictive mouse model of trigeminal neuralgia; test: Cold allodynia (ice-cold acetone) after constriction of the maxillary nerve; format: in vivo; settings: WT mice; i.p. daily for two days before surgery and daily after behavior testing; sulforaphane, exemestane, letrozole 10 mg/kg; JQ-1 40 mg/kg; ascorbate 100 mg/kg; vs vehicle
Description: (§1) Constriction of the Maxillary Nerve Constriction of the maxillary division of trigeminal nerve was performed as previously described (See Benedetti, A., et al., Biochimica Et Biophysica Acta Bba—Lipids Lipid Metabolism 620, 281-296 (1980) and Vos, B., et al J Neurosci 14, 2708-2723 (1994)). The procedure was performed under direct visualization and control with a surgical microscope. Mice were first anesthetized with ketamine (100 mg/kg, i.p.) and xylazine (12.5 mg/kg, i.p.) and monitored by pinching the skin between the toes with forceps and monitoring for withdrawal. Mice were restrained with adhesive tape to a sterilized polystyrene board. […] Mice were monitored and rehydrated until fully recovered from anesthesia. […]
Cold Allodynia Cold allodynia was assessed in C57BL/6J, TRPA1^+/+, TRPA1^−/−, Keap1(f/f), and Keap1(f/f)/CMV-CreER mice using ice-cold acetone as previously outlined (See Yoon, C., et al., Pain 59, 369-376 (1994)). […] Cold allodynia was measured as the average time spent wiping the region in a 60 s period, with a maximum of 5 seconds between bouts of wiping. Allodynia was measured three times with 10 min between intervals. […] Behavior was assessed concomitantly or in a blocked manner with consideration for both genotype and treatment.

[2] = system: constrictive mouse model of trigeminal neuralgia; test: Mechanical allodynia (Von Frey filament) after constriction of the maxillary nerve; format: in vivo; settings: WT mice; i.p. daily for two days before surgery and daily after behavior testing; sulforaphane, exemestane, letrozole 10 mg/kg; JQ-1 40 mg/kg; ascorbate 100 mg/kg; vs vehicle
Description: as §1
Mechanical Allodynia Mechanical allodynia was assessed in C57BL/6J, TRPA1^+/+, TRPA1^−/−, Keap1(f/f), and Keap1(f/f/CMV-CreER mice using a Von Frey filament as previously outlined (See Benedetti, A., et al., Biochimica Et Biophysica Acta Bba—Lipids Lipid Metabolism 620, 281-296 (1980) and Vos, B., et al J Neurosci 14, 2708-2723 (1994)). Animals were placed individually in transparent plastic boxes and allowed to acclimate to the environment for at least 30 min before testing. After habituation, a 0.04 g force Von Frey filament was used to stimulate the territory innervated by the maxillary nerve, including the vibrissal skin pad. […] Each mouse was scored ten times per day. […]

[3] = system: maxillary nerves of mice after nerve ligation; test: Oxidative stress assay in maxillary nerves (4-HNE, protein carbonylation, MDA); format: in vivo, mouse; settings: western blot normalized to β-actin; daily i.p. pre-treatment; vs vehicle
Description: Western Blotting Western blotting was performed as previously described (See Vasavda, C. et al. Cell Chem Biol 26, 1450-1460.e7 (2019)). Briefly, tissues were homogenized at 4° C. in lysis buffer (pH 7.4 solution of 50 mM Tris-HCl, 150 mM NaCl, 0.1% SDS, 0.5% sodium deoxycholate, and 1% Triton X-100) supplemented with protease inhibitors (Sigma). When dissecting maxillary nerves for immunoblot analysis, nerves were as dissected both as proximally towards the semilunar ganglion and as distal to the skin as possible. Nerves were harvested 11 days after surgery, immediately after the final behavioral test. Lysates were then pulse sonicated and centrifuged at 16,000 g for 10 min at 4° C. […]
Oxidative Stress Assay % 4-HNE was quantified by Western blot as described above with a rabbit anti-4-HNE (Abeam ab46545; 1:1,000) primary antibody. Protein carbonylation was assessed with the OxyBlot Protein Oxidation Detection Kit as per the manufacturer's instructions. Protein carbonylation was quantified by western blot as described above with a rabbit anti-DNP (Millipore Sigma 90451; 1:150) primary antibody. MDA was quantified with the OxiSelect TBARS Assay Kit as per the manufacturer's instructions. […]

O=C1O[C@H]([C@@H](O)CO)C(O)=C1O [ascorbate]
did not reduce: cold allodynia (ice-cold acetone) [1] | mechanical allodynia (sensitivity to crude touch) [2] | levels of 4-HNE in maxillary nerves after nerve ligation [3] | protein carbonylation in maxillary nerves after nerve ligation [3]
